Source: paper PMC3189220
Results are given in words; binding and its absence hold for the method and conditions named. Some entries that bind do so weakly or less than the wild type.

Protein sequences, listed by entry. Tags and fused reporters are not part of them. Residues count along the entry.
GST-AF1 (P04150, residues 77-262): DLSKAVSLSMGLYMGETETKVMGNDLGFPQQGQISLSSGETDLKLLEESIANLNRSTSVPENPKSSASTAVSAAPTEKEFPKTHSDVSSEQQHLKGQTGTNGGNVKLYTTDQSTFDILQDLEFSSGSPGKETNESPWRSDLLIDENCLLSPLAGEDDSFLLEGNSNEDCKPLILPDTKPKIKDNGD
GST-DBD (P04150, residues 398-500): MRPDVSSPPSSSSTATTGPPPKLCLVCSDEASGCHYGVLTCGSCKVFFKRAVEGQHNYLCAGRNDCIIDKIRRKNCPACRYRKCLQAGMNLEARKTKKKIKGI
UniProt P20226: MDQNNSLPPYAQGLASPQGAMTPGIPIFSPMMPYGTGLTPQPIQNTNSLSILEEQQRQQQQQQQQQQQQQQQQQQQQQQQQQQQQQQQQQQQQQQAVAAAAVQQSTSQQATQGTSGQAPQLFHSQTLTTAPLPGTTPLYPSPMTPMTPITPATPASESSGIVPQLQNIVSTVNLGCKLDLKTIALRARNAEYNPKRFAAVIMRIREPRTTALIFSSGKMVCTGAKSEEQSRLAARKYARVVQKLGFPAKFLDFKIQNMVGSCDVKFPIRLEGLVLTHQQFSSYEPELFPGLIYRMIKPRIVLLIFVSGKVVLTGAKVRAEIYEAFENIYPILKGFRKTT

Key:
GST-AF1 (human) = GST-AF1 (human) (UniProt P04150); test: pull-down; GST fusion or GST immobilised on glutathione-Sepharose beads; purified JDP-2 or TBPC added, 2 h; washed; SDS-PAGE with Coomassie Blue staining; both purified
GST-DBD (human) = GST-DBD (human) (UniProt P04150); test: as above

## TATA box binding protein (TBPC) (from UniProt P20226 1-339)
GST-AF1 (human)
  binding: binds
GST-DBD (human)
  binding: no binding

B1: jun dimerization protein 2 (JDP2) (protein, UniProt Q8WYK2 1-163)
chain: MMPGQIPDPSVTTGSLPGLGPLTGLPSSALTVEELKYADIRNLGAMIAPLHFLEVKLGKRPQPVKSELDEEEERRKRRREKNKVAAARCRNKKKERTEFLQRESERLELMNAELKTQIEELKQERQQLILMLNRHRPTCIVRTDSVKTPESEGNPLLEQLEKK
GST-AF1 (human)
  binding: no binding
GST-DBD (human)
  binding: binds
